From US10577618B2, “Class of glyphosate resistance genes” (Dow AgroSciences LLC, priority 2012, dated 2020)
Where a chain is given by its changes, count along the chain named. At least one read-out could not be matched to a standard name with certainty. Some entries share one result that the patent states for a list of compounds.

B1: DGT-28v1: Class IV EPSP synthase from Streptomyces sviceus ATCC29083, SEQ ID NO:1, native (protein, listed as Streptomyces sviceus)
chain: MRGMPALSLPGSKSITARALFLAAAADGVTTLVRPLRSDDTEGFAEGLVRLGYRVGRTPDTWQVDGRPQGPAVAEADVYCRDGATTARFLPTLAAAGHGTYRFDASPQMRRRPLLPLSRALRDLGVDLRHEEAEGHHPLTVRAAGVEGGEVTLDAGQSSQYLTALLLLGPLTRQGLRIRVTDLVSAPYVEITLAMMRAFGVEVAREGDVFVVPPGGYRATTYAIEPDASTASYFFAAAALTPGAEVTVPGLGTGALQGDLGFVDVLRRMGAEVSVGADATTVRGTGELRGLTANMRDISDTMPTLAAIAPFASAPVRIEDVANTRVKECDRLEACAENLRRLGVRVATGPDWIEIHPGPATGAQVTSYGDHRIVMSFAVTGLRVPGISFDDPGCVRKTFPGFHEAFAELRRGIGS
B2: DGT-32: Streptomyces Class IV EPSP synthase, GENBANK ZP_04696613, SEQ ID NO:68 (protein)
chain: DRWRVQGRPAGPAATEADVYCRDGATTARFLPTLAAAAASGTYRFDASAQMRRRPLAPLTRALTALGVDLRH
modifications: Streptomyces roseosporus NRRL 15998
B3: DGT-33: Streptomyces Class IV EPSP synthase, GENBANK NC_010572, SEQ ID NO:67 (protein)
chain: B2 chain with Q6E, A10D, T15P, E16D, A35V
modifications: Streptomyces griseus subsp. griseus NBRC 13350

Test system: EPSP synthase (DGT enzymes)
Assay: In vitro kinetic characterization of plant and bacterial DGT enzymes (Pi production, malachite green)
Type: biochemical
Details: for Kcat/Km: catalytic efficiency; for Km: read-out: KM^PEP, Km for phosphoenolpyruvate
Description: Recombinant DGT proteins were overexpressed in Rosetta2™ (DE3) cells (Novagen™, Madison, Wis.) from the constructs described above. A single colony was used to inoculate 50 mL starter cultures of LB containing chloramphenicol (25 μg/mL) and kanamycin (50 μg/mL) which were cultivated overnight at 37° C. The overnight cultures were used to inoculate 1 L of LB containing chloramphenicol (25 μg/mL) and kanamycin (50 μg/mL). The cultures were grown at 37° C. to an O.D.600=0.6 then placed in an ice water bath for 10 minutes. Expression of the target proteins was achieved by addition of IPTG to a final concentration of 500 μM.
DGT enzymes were purified to homogeneity in one step via immobilized metal affinity chromatography (IMAC) using a 5 mL HisTrap FF crude column. The column was equilibrated in Buffer A and the sample was loaded in the same buffer. The column was then washed with 10 column volumes of Buffer A followed by elution in a 0-100% Buffer B (50 mM HEPES pH 7.5, 200 mM KCl, 2 mM DTT, 1 mM EDTA, 500 mM imidazole, and 5% glycerol) linear gradient over 25 column volumes. Fractions containing target protein, as judged by SDS-PAGE analysis, were concentrated to 2.5 mL using a Millipore ultracentrifugation device equipped with a 10 kDa molecular weight cut-off (MWCO). The purified DGT enzymes were buffer exchanged using PD-10 columns (GE Healthcare) into 50 mM HEPES pH 7.5, 150 mM KCl, 2 mM DTT, and 5% glycerol and subsequently concentrated ˜1 mL. Samples were typically diluted 1:50 and the UV-visible spectrum was recorded from 240-700 nm on a Cary50™ Bio UV-visible spectrophotometer. A theoretical extinction coefficient was then used to calculate the protein concentration based on the absorbance at 280 nm (ExPASy, Geneva, Switzerland).
Frozen pellets were resuspended in 20-30 mL buffer A (50 mM HEPES pH 7.5, 100 mM KCl, 1 mM EDTA, 5% glycerol, and 1 mM DTT) and 1 tablet of protease inhibitor (Roche Complete). Once the pellet was completely resolubilized 1 mg/mL of lysozyme was added and the sample was mixed at 4° C. for 15-20 minutes. Following the incubation with the lysozyme the sample was transferred to a 50 mL centrifuge tube and placed on ice. The sample was then sonicated for 1 minute intervals followed by 4 minutes of cooling. This step was repeated two more times for a total of three sonication cycles. Cell debris was removed by centrifugation at 16,500 rpm for 45 minutes and the supernatant was loaded into a 50 mL injection loop. The crude lysate was applied to an amylose column, washed for 7 column volumes with buffer A, and eluted in 100% buffer B (Buffer A and 10 mM maltose). Target protein was pooled and concentrated to 2.5 mL using a 30 kDa MWCO centricon. The purified protein was buffer exchanged into 50 mM HEPES pH 7.5, 100 mM KCl, and 5% glycerol using a PD-10 gel filtration column. Protein concentrations were determined via Bradford assay using BSA as a standard. The pure protein was frozen in liquid nitrogen and stored at −80° C.
The enzyme activities of wild-type (WT) and mutant DGTs were measured by inorganic phosphate (Pi) production in a modified procedure described by Lanzetta et al. (1979) Anal. Bioch. 100:95-7. Assays were performed in 96-well plate format in a total of 50 μL on a Spectra-Max 190 plate reader (Molecular Devices, Sunnyvale, Calif.). Typical assays contained 50 mM HEPES pH 7.5, 150 mM KCl, 2 mM DTT, and 1 mM S3P. […] Glyphosate was obtained from Sigma as the free acid and was resuspended in ddH2O. Glyphosate was solubilized by addition of KOH until the mixture was at a neutral pH. Assays were initiated by addition of the DGT enzyme at concentrations that varied between 0.01-1 μM. Reactions were terminated by the addition of 235 μL of a 3:1 mixture of malachite green: ammonium molybdate solution. After complete color development (˜1 minute), the absorbance change at 660 nm was recorded and the amount of Pi formed was calculated from a standard curve. […]

Row | Molecule | Kcat/Km [M⁻¹ s⁻¹] | Kcat/Km (listed as DGT-28 v1) [M⁻¹ s⁻¹] | Km [µM]
1 | B1 | 132000 | 132000 | –
2 | B2 | 1300 | – | 114 to 139
3 | B3 | 2400 | – | 114 to 139
